{
  "source": "ChEMBL document CHEMBL4316593",
  "about": "(Eur J Med Chem, 2019)",
  "assay_type_in_all_cases": "cell-based",
  "conditions_in_all_cases": "U-87MG ATCC",
  "key": {"[1]": {"assay": "Inhibition of RTK/PI3K/AKT/mTOR signaling in human U87 cells assessed as up regulation of ZNF33B gene expression at cytotoxic IC50 measured after 48 hrs relative to control"}, "[2]": {"assay": "Inhibition of RTK/PI3K/AKT/mTOR signaling in human U87 cells assessed as up regulation of EFNA4 gene expression at cytotoxic IC50 measured after 48 hrs relative to control"}, "[3]": {"assay": "Inhibition of RTK/PI3K/AKT/mTOR signaling in human U87 cells assessed as down regulation of EIF2B2 gene expression at cytotoxic IC50 measured after 48 hrs relative to control"}, "[4]": {"assay": "Inhibition of RTK/PI3K/AKT/mTOR signaling in human U87 cells assessed as up regulation of AP3S1 gene expression at cytotoxic IC50 measured after 48 hrs relative to control"}, "[5]": {"assay": "Inhibition of RTK/PI3K/AKT/mTOR signaling in human U87 cells assessed as up regulation of interferon related developmental regulator 2 gene expression at cytotoxic IC50 measured after 48 hrs relative to control"}, "[6]": {"assay": "Inhibition of RTK/PI3K/AKT/mTOR signaling in human U87 cells assessed as up regulation of signal sequence receptor subunit 4 gene expression at cytotoxic IC50 measured after 48 hrs relative to control"}, "[7]": {"assay": "Inhibition of RTK/PI3K/AKT/mTOR signaling in human U87 cells assessed as down regulation of CHRNB1 gene expression at cytotoxic IC50 measured after 48 hrs relative to control"}, "[8]": {"assay": "Inhibition of RTK/PI3K/AKT/mTOR signaling in human U87 cells assessed as up regulation of calreticulin gene expression at cytotoxic IC50 measured after 48 hrs relative to control"}, "[9]": {"assay": "Inhibition of RTK/PI3K/AKT/mTOR signaling in human U87 cells assessed as up regulation of nuclear factor, erythroid 2 like 1 gene expression at cytotoxic IC50 measured after 48 hrs relative to control"}, "[10]": {"assay": "Inhibition of RTK/PI3K/AKT/mTOR signaling in human U87 cells assessed as down regulation of KLHL38 gene expression at cytotoxic IC50 measured after 48 hrs relative to control"}, "[11]": {"assay": "Inhibition of RTK/PI3K/AKT/mTOR signaling in human U87 cells assessed as up regulation of Kruppel like factor 9 gene expression at cytotoxic IC50 measured after 48 hrs relative to control"}, "[12]": {"assay": "Inhibition of RTK/PI3K/AKT/mTOR signaling in human U87 cells assessed as down regulation of NECAP1 gene expression at cytotoxic IC50 measured after 48 hrs relative to control"}, "[13]": {"assay": "Inhibition of RTK/PI3K/AKT/mTOR signaling in human U87 cells assessed as down regulation of STAM gene expression at cytotoxic IC50 measured after 48 hrs relative to control"}, "[14]": {"assay": "Inhibition of RTK/PI3K/AKT/mTOR signaling in human U87 cells assessed as up regulation of PTCHD4 gene expression at cytotoxic IC50 measured after 48 hrs relative to control"}, "[15]": {"assay": "Inhibition of RTK/PI3K/AKT/mTOR signaling in human U87 cells assessed as up regulation of SLMAP gene expression at cytotoxic IC50 measured after 48 hrs relative to control"}, "[16]": {"assay": "Inhibition of RTK/PI3K/AKT/mTOR signaling in human U87 cells assessed as up regulation of CLDN3 gene expression at cytotoxic IC50 measured after 48 hrs relative to control"}, "[17]": {"assay": "Inhibition of RTK/PI3K/AKT/mTOR signaling in human U87 cells assessed as down regulation of ARRDC4 gene expression at cytotoxic IC50 measured after 48 hrs relative to control"}, "[18]": {"assay": "Inhibition of RTK/PI3K/AKT/mTOR signaling in human U87 cells assessed as up regulation of MYO1C gene expression at cytotoxic IC50 measured after 48 hrs relative to control"}, "[19]": {"assay": "Inhibition of RTK/PI3K/AKT/mTOR signaling in human U87 cells assessed as up regulation of jade family PHD finger 2 gene expression at cytotoxic IC50 measured after 48 hrs relative to control"}, "[20]": {"assay": "Inhibition of RTK/PI3K/AKT/mTOR signaling in human U87 cells assessed as down regulation of MAN2A1 gene expression at cytotoxic IC50 measured after 48 hrs relative to control"}, "[21]": {"assay": "Inhibition of RTK/PI3K/AKT/mTOR signaling in human U87 cells assessed as up regulation of family with sequence similarity 168 member A gene expression at cytotoxic IC50 measured after 48 hrs relative to control"}, "[22]": {"assay": "Inhibition of RTK/PI3K/AKT/mTOR signaling in human U87 cells assessed as down regulation of TRAPPC4 gene expression at cytotoxic IC50 measured after 48 hrs relative to control"}, "[23]": {"assay": "Inhibition of RTK/PI3K/AKT/mTOR signaling in human U87 cells assessed as up regulation of ATP1A1 gene expression at cytotoxic IC50 measured after 48 hrs relative to control"}, "[24]": {"assay": "Inhibition of RTK/PI3K/AKT/mTOR signaling in human U87 cells assessed as up regulation of translocase of outer mitochondrial membrane 20 gene expression at cytotoxic IC50 measured after 48 hrs relative to control"}, "[25]": {"assay": "Inhibition of RTK/PI3K/AKT/mTOR signaling in human U87 cells assessed as up regulation of protein phosphatase 3 catalytic subunit alpha gene expression at cytotoxic IC50 measured after 48 hrs relative to control"}, "[26]": {"assay": "Inhibition of RTK/PI3K/AKT/mTOR signaling in human U87 cells assessed as down regulation of EXOC8 gene expression at cytotoxic IC50 measured after 48 hrs relative to control"}, "[27]": {"assay": "Inhibition of RTK/PI3K/AKT/mTOR signaling in human U87 cells assessed as down regulation of KIAA0556 gene expression at cytotoxic IC50 measured after 48 hrs relative to control"}, "[28]": {"assay": "Inhibition of RTK/PI3K/AKT/mTOR signaling in human U87 cells assessed as up regulation of protein kinase N1 gene expression at cytotoxic IC50 measured after 48 hrs relative to control"}, "[29]": {"assay": "Inhibition of RTK/PI3K/AKT/mTOR signaling in human U87 cells assessed as down regulation of ID2 gene expression at cytotoxic IC50 measured after 48 hrs relative to control"}, "[30]": {"assay": "Inhibition of RTK/PI3K/AKT/mTOR signaling in human U87 cells assessed as up regulation of GDP-mannose pyrophosphorylase A gene expression at cytotoxic IC50 measured after 48 hrs relative to control"}, "[31]": {"assay": "Inhibition of RTK/PI3K/AKT/mTOR signaling in human U87 cells assessed as down regulation of SLC25A19 gene expression at cytotoxic IC50 measured after 48 hrs relative to control"}, "[32]": {"assay": "Inhibition of RTK/PI3K/AKT/mTOR signaling in human U87 cells assessed as up regulation of KIAA1522 gene expression at cytotoxic IC50 measured after 48 hrs relative to control"}},
  "note": "Further values from the same series stand in other lists.",
  "data": [
    {"smiles": "CC(=O)C(=NNc1ccccc1C#N)C(C)=O", "values": [
      {"measurement": "log2FC", "setting": "[1]", "value": 1.66},
      {"measurement": "log2FC", "setting": "[2]", "value": 1.76},
      {"measurement": "log2FC", "setting": "[3]", "value": -0.756},
      {"measurement": "log2FC", "setting": "[4]", "value": 0.533},
      {"measurement": "log2FC", "setting": "[5]", "value": 0.953},
      {"measurement": "log2FC", "setting": "[6]", "value": 0.653},
      {"measurement": "log2FC", "setting": "[7]", "value": -0.661},
      {"measurement": "log2FC", "setting": "[8]", "value": 1.14},
      {"measurement": "log2FC", "setting": "[9]", "value": 0.647},
      {"measurement": "log2FC", "setting": "[10]", "value": -6.78},
      {"measurement": "log2FC", "setting": "[11]", "value": 0.892},
      {"measurement": "log2FC", "setting": "[12]", "value": -0.981},
      {"measurement": "log2FC", "setting": "[13]", "value": -1.11},
      {"measurement": "log2FC", "setting": "[14]", "value": 4.5},
      {"measurement": "log2FC", "setting": "[15]", "value": 0.521},
      {"measurement": "log2FC", "setting": "[16]", "value": 1.71},
      {"measurement": "log2FC", "setting": "[17]", "value": -2.67},
      {"measurement": "log2FC", "setting": "[18]", "value": 0.535},
      {"measurement": "log2FC", "setting": "[19]", "value": 1.12},
      {"measurement": "log2FC", "setting": "[20]", "value": -0.534},
      {"measurement": "log2FC", "setting": "[21]", "value": 0.77},
      {"measurement": "log2FC", "setting": "[22]", "value": -0.921},
      {"measurement": "log2FC", "setting": "[23]", "value": 0.427},
      {"measurement": "log2FC", "setting": "[24]", "value": 1.12},
      {"measurement": "log2FC", "setting": "[25]", "value": 0.721},
      {"measurement": "log2FC", "setting": "[26]", "value": -1.04},
      {"measurement": "log2FC", "setting": "[27]", "value": -0.638},
      {"measurement": "log2FC", "setting": "[28]", "value": 0.649},
      {"measurement": "log2FC", "setting": "[29]", "value": -1.05},
      {"measurement": "log2FC", "setting": "[30]", "value": 0.786},
      {"measurement": "log2FC", "setting": "[31]", "value": -1.62},
      {"measurement": "log2FC", "setting": "[32]", "value": 0.908}
    ]}
  ]
}
